In publication PMC8467329 one finds binding data, which are given here for one substance.

The chains behind the UniProt entries cited, without tags or fusion partners.
UniProt P83949: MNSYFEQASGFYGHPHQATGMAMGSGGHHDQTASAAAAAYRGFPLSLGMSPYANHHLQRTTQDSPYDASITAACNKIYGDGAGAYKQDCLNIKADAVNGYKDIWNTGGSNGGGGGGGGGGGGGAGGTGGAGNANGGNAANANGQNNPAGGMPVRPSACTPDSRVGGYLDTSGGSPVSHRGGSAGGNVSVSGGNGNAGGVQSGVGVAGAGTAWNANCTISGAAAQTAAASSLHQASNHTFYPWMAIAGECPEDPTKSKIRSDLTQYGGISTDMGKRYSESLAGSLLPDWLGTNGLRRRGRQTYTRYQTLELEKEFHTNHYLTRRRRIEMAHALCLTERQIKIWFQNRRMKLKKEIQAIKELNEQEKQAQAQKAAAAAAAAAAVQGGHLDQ
UniProt P92177: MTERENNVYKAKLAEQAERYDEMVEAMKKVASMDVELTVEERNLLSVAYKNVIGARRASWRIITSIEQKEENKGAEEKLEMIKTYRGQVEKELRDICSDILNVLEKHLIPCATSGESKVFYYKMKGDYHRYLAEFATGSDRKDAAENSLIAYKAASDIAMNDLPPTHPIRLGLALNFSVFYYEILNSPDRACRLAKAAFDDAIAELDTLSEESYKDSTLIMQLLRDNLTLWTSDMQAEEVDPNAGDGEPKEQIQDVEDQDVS

These are yes or no findings as the source states them, for the method shown. Binding seen in cells or lysates may run through a third protein. Some entries that bind do so weakly or less than the wild type.

The target in this assay is Ultrabithorax (Ubx) (Drosophila melanogaster (endogenous in w1118 adult fly heads)) (UniProt P83949). The experiment in a line: co-IP; lysate of w1118 adult fly heads; IP with anti-14-3-3ε antibody and with anti-Ubx antibody; conducted as previously described (ref. 25).

In the case of “14-3-3ε protein (from UniProt P92177 1-262)”, the binding entry is given as “binds”.
